For four molecules, binding results are on record in patent US20030166850A1 (Pfizer, published 2003).

No constants are given. Whether binding was seen depends on the method and setting. Some results given as binding are weak or reduced against the parent protein; the word gives no strength.

Test [1] deals with T1, proline rich domain of RGS9-2, amino acids 460-672 of human RGS9 (bait, plasmid pAS1-RGS9CT) (human) (UniProt O75916).
T1 sequence: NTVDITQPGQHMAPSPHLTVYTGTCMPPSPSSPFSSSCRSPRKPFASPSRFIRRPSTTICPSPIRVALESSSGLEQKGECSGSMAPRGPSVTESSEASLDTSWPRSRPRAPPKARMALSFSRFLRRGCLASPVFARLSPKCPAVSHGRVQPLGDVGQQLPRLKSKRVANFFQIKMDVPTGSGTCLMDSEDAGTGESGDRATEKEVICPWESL
Description: yeast two-hybrid assay.

In test [2] the target is T2, evectin 1, shorter splice form lacking exon 2 (human) (UniProt Q9UF11).
T2 sequence: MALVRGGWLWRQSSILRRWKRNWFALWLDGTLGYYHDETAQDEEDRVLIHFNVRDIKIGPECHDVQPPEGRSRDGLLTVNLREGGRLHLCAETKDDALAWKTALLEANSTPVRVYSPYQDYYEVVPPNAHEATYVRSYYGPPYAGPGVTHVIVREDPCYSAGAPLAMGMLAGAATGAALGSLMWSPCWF
The test can be described thus: yeast two-hybrid assay.

B1: evectin 1, shorter splice form lacking exon 2 (protein)
chain: T2 sequence
As to B1, the binding result in test [1] is “binds”.

B2: RGS9 ΔC70 (C terminal deletion mutant of the RGS9-2 proline rich domain) (protein)
chain: NTVDITQPGQHMAPSPHLTVYTGTCMPPSPSSPFSSSCRSPRKPFASPSRFIRRPSTTICPSPIRVALESSSGLEQKGECSGSMAPRGPSVTESSEASLDTSWPRSRPRAPPKARMALSFSRFLRRGCLASPVFARLSPKCPA
Consider B2, for which the binding result in test [2] is on record as “binds”.

B3: EVT ΔC27 (C terminal deletion mutant of evectin) (protein)
chain: MALVRGGWLWRQSSILRRWKRNWFALWLDGTLGYYHDETAQDEEDRVLIHFNVRDIKIGPECHDVQPPEGRSRDGLLTVNLREGGRLHLCAETKDDALAWKTALLEANSTPVRVYSPYQDYYEVVPPNAHEATYVRSYYGPPYAGPGVTHVIVREDPCYSAGA
As for B3, in test [1], the binding result was “binds”.

B4: RGS9 ΔC47 (C terminal deletion mutant of the RGS9-2 proline rich domain) (protein)
chain: NTVDITQPGQHMAPSPHLTVYTGTCMPPSPSSPFSSSCRSPRKPFASPSRFIRRPSTTICPSPIRVALESSSGLEQKGECSGSMAPRGPSVTESSEASLDTSWPRSRPRAPPKARMALSFSRFLRRGCLASPVFARLSPKCPAVSHGRVQPLGDVGQQLPRLKSKR
Take B4: the binding result in test [2] was “binds”.
